# Measured values: PubChem BioAssay AID504834 (National Center for Advancing Translational Sciences (NCATS), 2011)
# The whole screen tested about 320,000 compounds, of which about 22,000 (6.9%) were called active. The inconclusive results got no clear call from the source; some entries with a clear call stand among them for comparison. The call rests on the fitted dose curve; in most records, active means well fitted inhibition curve with a large enough effect; inconclusive means small, poorly fitted or top-dose-only effect, or another doubt; inactive means no such curve, though single readings can be large or run the other way. A potency beside an inconclusive call is a rough fit, not a confirmed value.
# Test: Primary qHTS for delayed death inhibitors of the malarial parasite plastid, 96 hour incubation
# Settings: P. falciparum luciferase reporter growth; series mostly up to 28.7 µM
# Method in brief: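 Plates of compound plus infected erythrocytes (2% hematocrit, 0.05% parasitemia final) incubate 96 hours, 37 C, 5% CO2. Detection reagent added; reduced luminescence from the parasites' luciferase reporter flags inhibition.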
# Potency means the concentration at half of the fitted maximal effect.
row,SMILES,Potency
1,CC(=O)Nc1ccc(OCCC[n+]2ccccc2)cc1,inactive
2,OC(CNCc1ccco1)Cn1c2ccc(Br)cc2c2cc(Br)ccc21 (configuration not stated),active: 0.294 µM
3,Cc1ccc(C)c(S(=O)(=O)N2CCN(Cc3ccc(O)c4ncccc34)CC2)c1,active: 4.15 µM
4,COc1ccc(C(=O)NC(C)c2nnc(SCC(=O)Nc3nc4ccccc4s3)n2C)cc1 (configuration not stated),"inconclusive: 18.5 µM [inhibitor, partial curve, poor fit]"
5,CCNC(=O)COC(=O)/C=C/c1ccccc1[N+](=O)[O-],inactive
6,O=C(CSc1ccccc1)N1CCCC(N2CCN(c3ccccc3)CC2)C1 (configuration not stated),"inconclusive: 20.8 µM [inhibitor, single point]"
7,Cc1cccc(N2CCN(S(=O)(=O)c3cc4c(cc3Cl)NC(=O)CO4)CC2)c1C,"inconclusive: 2.62 µM [inhibitor, full curve]"
8,COc1ccc2nc(C)c(C(N)=O)cc2c1,inactive
9,C=CCSc1nnc(CCCCCN2C(=O)c3cccc4cccc(c34)C2=O)o1,"inconclusive: 18.5 µM [inhibitor, single point]"
10,O=C(NCc1ccccc1)NC1(C(=O)N2CCN(c3ccccc3)CC2)CCCCC1,inactive
11,CCOc1ccc(S(=O)(=O)N2CCN(Cc3ccccc3)CC2)cc1,inactive
12,CCCN1CCN(C(=O)C2CCN(c3ncnc4c3nc3n4CCCCC3)CC2)CC1,"inconclusive: 14.7 µM [inhibitor, partial curve]"
13,Cc1cc(C(=O)CN2C(=O)NC3(CCCc4sccc43)C2=O)c(C)n1-c1ccc(Cl)cc1 (configuration not stated),"inconclusive: 3.29 µM [inhibitor, full curve]"
14,Cc1nc2c(C)[n+](CC(=O)c3ccccc3)ccc2n1C,"inconclusive: 2.62 µM [inhibitor, full curve]"
15,Nc1nc2n(n1)C(c1cccs1)CC(c1ccccc1)N2 (configuration not stated),"inconclusive: 13.1 µM [inhibitor, partial curve, poor fit]"
16,COC(=O)c1cnn2c(C(F)(F)F)cc(-c3ccc(F)cc3)nc12,"inconclusive: 10.4 µM [inhibitor, single point]"
17,CCC(C)NC(=O)c1ccccc1NC(=O)c1ccc(CSc2ccc(C)cc2)cc1 (configuration not stated),"inconclusive: 18.5 µM [inhibitor, single point]"
18,c1csc(C(c2nnnn2C2CCCCC2)N2CCCC3(CCCCC3)C2)c1 (configuration not stated),"inconclusive: 8.28 µM [inhibitor, partial curve, poor fit]"
19,Cc1nn(Cc2ccc(Cl)cc2)c(C)c1NC(=O)C(c1ccccc1)c1ccccc1,inactive
20,COc1cccc(C2=CC(c3ccc(N(C)C)cc3)n3ncnc3N2)c1 (configuration not stated),inactive
21,COc1ccccc1/C=c1\sc2nc(-c3ccco3)nn2c1=O,"inconclusive: 0.738 µM [inhibitor, full curve, poor fit]"
22,Cc1noc(C)c1S(=O)(=O)N(CC(=O)NCc1ccc2c(c1)OCO2)c1ccc(C(C)C)cc1,inactive
23,Cc1nnc(-c2ccccc2)c(=O)n1/N=C/c1c(O)ccc2ccccc12,active: 4.15 µM
24,CCOc1ccccc1N1CCN(Cc2cn[nH]c2-c2ccc(F)cc2)CC1,"inconclusive: 0.738 µM [inhibitor, full curve, poor fit]"

row,SMILES,Potency
1,CCOC(=O)Cn1c(CN(Cc2ccccc2)Cc2ccccc2)nc2c1c(=O)[nH]c(=O)n2C,active: 3.29 µM
2,CCCCOC(=O)Nc1ccc(S(=O)(=O)Nc2nc(C)cc(C)n2)cc1,"inconclusive: 0.185 µM [inhibitor, full curve, poor fit]"
3,O=C(CCCN1C(=O)/C(=C\c2cccs2)SC1=S)Nc1ccc(C(=O)O)cc1,"inconclusive: 5.86 µM [inhibitor, partial curve]"
4,CCC(=O)c1ccc(OCC(O)CN2CCN(c3ccccn3)CC2)cc1 (configuration not stated),"inconclusive: 11.7 µM [inhibitor, single point]"
5,Cn1c(=O)c(=O)n(C)c2cc(S(=O)(=O)NCCc3ccccc3)ccc21,"inconclusive: 13.1 µM [inhibitor, partial curve, poor fit]"
6,CCOc1ccc(CN2CCN(Cc3ccsc3)C(CCO)C2)cc1CO (configuration not stated),"inconclusive: 13.1 µM [inhibitor, single point]"
7,O=C(CSc1nc2c([nH]c3ccccc32)c(=O)n1-c1ccccc1F)NCC1CCCO1 (configuration not stated),"inconclusive: 11.7 µM [inhibitor, single point]"
8,NC(=O)C1CCN(C(=S)c2ccc(-c3ccc(Br)cc3)o2)CC1,inactive
9,CCN(CC)CCN1C(=O)C(O)=C(C(=O)c2cccs2)C1c1ccc(C)o1 (configuration not stated),"inconclusive: 10.4 µM [inhibitor, single point]"
10,COc1cc(C#Cc2c(-c3ccccc3OC)oc3ccccc23)cc(OC)c1,"inconclusive: 11.7 µM [inhibitor, single point]"
11,Cc1ccc(NC(=O)Cn2cc(C(=O)C3CC3)c3ccccc32)cc1,"inconclusive: 3.7 µM [inhibitor, partial curve]"
12,COc1ccc(NC(=O)Cn2nnc(C(=O)Nc3ccc(F)c(Cl)c3)c2N)cc1OC,"inconclusive: 6.57 µM [inhibitor, partial curve, poor fit]"
13,COc1cc(/C=C/C(=O)c2ccc(NS(=O)(=O)c3ccc(C)cc3)cc2)ccc1OC(F)F,"inconclusive: 2.62 µM [inhibitor, full curve]"
14,O=C(NCc1ccccc1)C(c1ccncc1)N(C(=O)c1csnn1)C1CC1 (configuration not stated),inactive
15,C1=CC2CC1CC2CN1CCN(c2ccccc2)CC1 (configuration not stated),"inconclusive: 18.5 µM [inhibitor, single point]"
16,CCC(=O)N1CCc2cc(S(=O)(=O)NCCC(=O)NCc3ccccc3OC)ccc21,"inconclusive: 11.7 µM [inhibitor, single point]"
17,Cc1noc(C)c1C(=O)Nc1ccc(N(C)C)cc1,inactive
18,O=C(Cc1cccc2ccccc12)Nc1cc(Cl)ccc1C(=O)O,inactive
19,O=C(NCc1nc2ccccc2[nH]1)C1=C[C@H](c2ccc3c(c2)OCO3)C[C@H](OCCCCO)O1,active: 4.15 µM
20,O=C(NNc1ccccn1)c1ccccc1CC[N+](=O)[O-],"inconclusive: 4.15 µM [inhibitor, partial curve]"
21,COc1ccc(CSc2nc(CSC)cc(N3CCOCC3)n2)cc1,"inconclusive: 20.8 µM [inhibitor, partial curve, poor fit]"
22,COc1ccc(C(=O)NNc2ccccc2)cc1,"inconclusive: 3.7 µM [inhibitor, single point]"
23,COc1ccccc1OCCC(=O)OCC(=O)Nc1cc(S(=O)(=O)N2CCOCC2)ccc1Cl,inactive
24,Cc1ccc(NC(=O)COc2coc(CN3CCc4ccccc4C3)cc2=O)cc1Cl,"inconclusive: 13.1 µM [inhibitor, single point]"

# 4 entries from above, as tab-separated lines:
row	SMILES	Potency
4	COc1ccc(C(=O)NC(C)c2nnc(SCC(=O)Nc3nc4ccccc4s3)n2C)cc1 (configuration not stated)	inconclusive: 18.5 µM [inhibitor, partial curve, poor fit]
5	CCNC(=O)COC(=O)/C=C/c1ccccc1[N+](=O)[O-]	inactive
6	O=C(CSc1ccccc1)N1CCCC(N2CCN(c3ccccc3)CC2)C1 (configuration not stated)	inconclusive: 20.8 µM [inhibitor, single point]
7	Cc1cccc(N2CCN(S(=O)(=O)c3cc4c(cc3Cl)NC(=O)CO4)CC2)c1C	inconclusive: 2.62 µM [inhibitor, full curve]

# Next structures follow:

row,SMILES,Potency
1,Cc1cc(C(=O)NNC(=O)Cc2ccc(Cl)c(Cl)c2)c(C)o1,"inconclusive: 13.1 µM [inhibitor, single point]"
2,Cc1ccc(C(=O)N/N=C2\CCc3ccccc32)c(C)c1,"inconclusive: 18.5 µM [inhibitor, single point]"
3,COc1cccc(NC(=O)Nc2ccc(Br)cn2)c1,inactive
4,Cc1cccn2cc(CCNC(=O)c3cccs3)nc12,inactive
5,Cc1ccc(CC(=O)Nc2ccc(S(=O)(=O)Nc3ncccn3)cc2)cc1,inactive
6,COc1ccc(NC(=O)CN2CCCN(S(=O)(=O)c3ccc(F)cc3)CC2)c(OC)c1,"inconclusive: 0.657 µM [inhibitor, full curve, poor fit]"
7,O=c1nccc(SCc2ccc(Cl)cc2Cl)[nH]1,inactive
8,N#CC1=C(SCC(=O)c2ccc(Cl)cc2)NC2=C(C(=O)CCC2)C1c1ccco1 (configuration not stated),inactive
9,COc1cc(C2C3=C(CCCC3=O)Nc3[nH]n(-c4ccccc4)c(=O)c32)ccc1O (configuration not stated),"inconclusive: 11.7 µM [inhibitor, partial curve]"
10,O=C(O)c1cccc(S(=O)(=O)N2CCCC(c3nc4c(nnn4Cc4ccc(F)cc4)c(=O)[nH]3)C2)c1 (configuration not stated),inactive
11,CN1N=C(C(=O)N2CCc3c([nH]c4ccccc34)C2c2ccccc2Cl)CCC1=O (configuration not stated),active: 10.4 µM
12,Cc1c(N2C(=O)CSC2c2ccco2)c(=O)n(-c2ccccc2)n1C (configuration not stated),inactive
13,COc1cccc(CNC2CCCC2)c1,"inconclusive: 5.86 µM [inhibitor, single point]"
14,CCOc1ccc(C(=O)N/N=C/c2ccccc2[N+](=O)[O-])cc1,inactive
15,COCCNc1nnc(SCC(=O)Nc2sc3c(c2C(=O)c2ccccc2)CCCC3)s1,active: 9.28 µM
16,O=C(NC1CCCC1)c1cc(-c2cccc(Cl)c2)on1,"inconclusive: 0.0026 µM [inhibitor, full curve, poor fit]"
17,CCOC(=O)c1cc2c(=O)n3ccccc3nc2n(Cc2ccco2)c1=NC(=O)c1cccnc1,"inconclusive: 18.5 µM [inhibitor, single point]"
18,COC(=O)c1nc(NC(=O)C(C)C)n[nH]1,active: 5.86 µM
19,O=C(CNC(=O)C1CCCCC1)NC1CCCCC1,"inconclusive: 18.5 µM [inhibitor, single point]"
20,Cn1c(NC(=O)C[n+]2cc(-c3ccccc3)n3c2CCC3)cc(=O)n(C)c1=O,active: 0.828 µM
21,CCOc1ccc(CC(=O)Nc2ccc(-c3ccc4nnc(C)n4n3)cc2)cc1,inactive
22,O=C(CSc1nnc(COc2ccc(Cl)cc2)n1Cc1ccco1)c1ccccc1F,"inconclusive: 16.5 µM [inhibitor, single point]"
23,O=C(O)c1ccc(Nc2nc(-c3cccnc3)cs2)cc1O,inactive
24,CCN(C(=O)COC(=O)CCC(=O)c1ccccc1)c1c(N)n(Cc2ccccc2)c(=O)[nH]c1=O,inactive
